{
  "sequences": {"note": "Chains of the proteins cited; added tags and fusions are not shown.", "UniProt Q96CV9": "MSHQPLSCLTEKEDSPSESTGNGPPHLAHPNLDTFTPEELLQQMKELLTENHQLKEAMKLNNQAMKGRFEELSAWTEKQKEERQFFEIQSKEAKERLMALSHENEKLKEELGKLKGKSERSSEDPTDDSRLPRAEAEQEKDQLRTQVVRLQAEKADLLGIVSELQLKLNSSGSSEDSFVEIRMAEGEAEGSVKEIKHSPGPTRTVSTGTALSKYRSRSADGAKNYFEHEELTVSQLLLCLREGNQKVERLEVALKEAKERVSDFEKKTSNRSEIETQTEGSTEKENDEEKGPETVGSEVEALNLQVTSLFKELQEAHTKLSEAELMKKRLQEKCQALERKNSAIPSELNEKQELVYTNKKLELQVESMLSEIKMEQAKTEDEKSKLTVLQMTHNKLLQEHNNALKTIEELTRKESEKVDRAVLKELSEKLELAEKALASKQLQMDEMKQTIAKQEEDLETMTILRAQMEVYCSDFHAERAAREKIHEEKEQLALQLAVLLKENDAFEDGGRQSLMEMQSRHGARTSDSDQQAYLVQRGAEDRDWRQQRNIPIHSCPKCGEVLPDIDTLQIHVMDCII"},
  "source": "paper PMC11322865",
  "binders": {"B1": {"name": "His6-tagged HACE1 (protein, UniProt Q8IYU2 1-909)", "chain": "MERAMEQLNRLTRSLRRARTVELPEDNETAVYTLMPMVMADQHRSVSELLSNSKFDVNYAFGRVKRSLLHIAANCGSVECLVLLLKKGANPNYQDISGCTPLHLAARNGQKKCMSKLLEYSADVNICNNEGLTAIHWLAVNGRTELLHDLVQHVSDVDVEDAMGQTALHVACQNGHKTTVQCLLDSGADINRPNVSGATPLYFACSHGQRDTAQILLLRGAKYLPDKNGVTPLDLCVQGGYGETCEVLIQYHPRLFQTIIQMTQNEDLRENMLRQVLEHLSQQSESQYLKILTSLAEVATTNGHKLLSLSSNYDAQMKSLLRIVRMFCHVFRIGPSSPSNGIDMGYNGNKTPRSQVFKPLELLWHSLDEWLVLIATELMKNKRDSTEITSILLKQKGQDQDAASIPPFEPPGPGSYENLSTGTRESKPDALAGRQEASADCQDVISMTANRLSAVIQAFYMCCSCQMPPGMTSPRFIEFVCKHDEVLKCFVNRNPKIIFDHFHFLLECPELMSRFMHIIKAQPFKDRCEWFYEHLHSGQPDSDMVHRPVNENDILLVHRDSIFRSSCEVVSKANCAKLKQGIAVRFHGEEGMGQGVVREWFDILSNEIVNPDYALFTQSADGTTFQPNSNSYVNPDHLNYFRFAGQILGLALNHRQLVNIYFTRSFYKHILGIPVNYQDVASIDPEYAKNLQWILDNDISDLGLELTFSVETDVFGAMEEVPLKPGGGSILVTQNNKAEYVQLVTELRMTRAIQPQINAFLQGFHMFIPPSLIQLFDEYELELLLSGMPEIDVSDWIKNTEYTSGYEREDPVIQWFWEVVEDITQEERVLLLQFVTGSSRVPHGGFANIMGGSGLQNFTIAAVPYTPNLLPTSSTCINMLKLPEYPSKEILKDRLLVALHCGSYGYTMA"}},
  "key": {"[1]": {"biological_target": "GST-tagged OPTN (optineurin) (UniProt Q96CV9)", "experiment": "pull-down; purified GST-tagged protein (20 ug) and His6-tagged protein (20 ug) with 50 uL Glutathione Sepharose 4B, 4°C overnight in 1 mL buffer (20 mM Tris-HCl, 5 mM MgCl2, 100 mM NaCl, 1 mM EDTA, 1% NP-40, 1 mM DTT, pH 7.4, 10 mg/L BSA); five washes; immunoblotting; both purified"}, "[2]": {"biological_target": "GST-tagged p62 (UniProt Q13501)", "experiment": "pull-down; purified GST-tagged protein (20 ug) and His6-tagged protein (20 ug) with 50 uL Glutathione Sepharose 4B, 4°C overnight in 1 mL buffer (20 mM Tris-HCl, 5 mM MgCl2, 100 mM NaCl, 1 mM EDTA, 1% NP-40, 1 mM DTT, pH 7.4, 10 mg/L BSA); five washes; immunoblotting; both purified"}},
  "note": "Results are given in words; binding and its absence hold for the method and conditions named. Some results given as binding are weak or reduced against the parent protein; the word gives no strength. Where a sequence is shown, tags or fusion partners need not be part of it.",
  "data": [
    {"binder": "B1", "values": [
      {"measurement": "binding", "setting": "[1]", "value": "binds"},
      {"measurement": "binding", "setting": "[2]", "value": "no binding (tested: 20 ug of each protein in 1 mL)"}
    ]}
  ]
}
